For four molecules, binding results are on record in PMC2946606.

The chains behind the UniProt entries cited, without tags or fusion partners. Where a name states a change or a piece, a line headed by the entry shows the natural chain unless it says otherwise. Residues count along the entry.
UniProt Q92616, residues 840-1815: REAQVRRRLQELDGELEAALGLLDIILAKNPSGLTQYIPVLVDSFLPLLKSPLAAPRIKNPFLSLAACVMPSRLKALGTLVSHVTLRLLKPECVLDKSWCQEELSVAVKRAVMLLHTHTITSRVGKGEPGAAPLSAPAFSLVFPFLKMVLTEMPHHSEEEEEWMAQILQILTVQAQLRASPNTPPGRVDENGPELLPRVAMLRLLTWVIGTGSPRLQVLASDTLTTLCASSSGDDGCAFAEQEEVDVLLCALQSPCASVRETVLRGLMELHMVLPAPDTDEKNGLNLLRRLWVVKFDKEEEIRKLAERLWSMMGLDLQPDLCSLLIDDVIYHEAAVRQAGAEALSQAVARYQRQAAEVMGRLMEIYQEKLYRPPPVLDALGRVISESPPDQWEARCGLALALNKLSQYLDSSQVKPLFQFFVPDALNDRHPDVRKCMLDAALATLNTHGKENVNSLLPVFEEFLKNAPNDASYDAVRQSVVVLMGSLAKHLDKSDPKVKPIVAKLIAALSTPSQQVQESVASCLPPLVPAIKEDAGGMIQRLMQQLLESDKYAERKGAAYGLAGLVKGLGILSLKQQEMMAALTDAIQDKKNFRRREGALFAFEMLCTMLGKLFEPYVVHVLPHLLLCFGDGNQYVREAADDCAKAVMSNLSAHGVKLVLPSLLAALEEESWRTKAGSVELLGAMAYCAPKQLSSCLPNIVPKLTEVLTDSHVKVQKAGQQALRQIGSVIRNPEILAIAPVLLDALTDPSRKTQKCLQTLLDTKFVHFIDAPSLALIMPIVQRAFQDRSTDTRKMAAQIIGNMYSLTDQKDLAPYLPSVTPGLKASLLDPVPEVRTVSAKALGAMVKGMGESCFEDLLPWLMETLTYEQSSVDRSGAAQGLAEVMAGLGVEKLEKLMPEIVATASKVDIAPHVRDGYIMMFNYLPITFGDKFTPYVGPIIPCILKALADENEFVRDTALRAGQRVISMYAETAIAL
UniProt Q63009: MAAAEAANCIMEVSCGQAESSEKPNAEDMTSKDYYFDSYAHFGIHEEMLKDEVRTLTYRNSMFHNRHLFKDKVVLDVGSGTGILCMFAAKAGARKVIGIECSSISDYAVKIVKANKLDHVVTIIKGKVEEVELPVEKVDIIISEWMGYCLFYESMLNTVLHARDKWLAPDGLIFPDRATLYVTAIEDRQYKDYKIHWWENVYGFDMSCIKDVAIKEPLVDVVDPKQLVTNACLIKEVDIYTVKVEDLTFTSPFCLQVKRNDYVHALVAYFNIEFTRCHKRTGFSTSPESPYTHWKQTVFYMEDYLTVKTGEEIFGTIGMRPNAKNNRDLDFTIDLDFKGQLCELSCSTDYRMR

B1: Med20 in rat liver nuclear extract (protein, UniProt Q5XIE9 1-212)
chain: MGVTCVSQMPVAEGKSVQQTVELLTKKLEMLGAEKQGTFCVDCETYHTAASTLGSQGQAGKLMYVMHNSEYPLSCFALFENGPCLIADTNFDVLMVKLKGFFQSAKASKIETRGTRYQYCDFLVKVGTVTMGPSARGISVEVEYGPCVVASDCWSLLLEFLQSFLGSHTPGAPTVFGNRHDAVYGPADTMVQYMELFNKVRKQQQVPVAGIR
B2: ZNRD1 (zinc ribbon domain-containing 1) in rat liver nuclear extract (protein, UniProt Q6MFY5 1-123)
chain: MELARPCSNFQSDLDFCPDCGSVLPLPGVQDTVICPRCGFSIDVRDFGGKVVKTSVVFNKLGTVIPMSVDEGPESQGPVVDRRCSRCGHEGMAYYTRQMRSADEGQTVFYTCINCKFQEKEDS
B3: Med24/TRAP100 in rat liver nuclear extract (protein, UniProt Q4V8B3 1-987)
chain: MKVVNLKQAILQAWKERWSDYQWAINMKKFFPKGATWDILNLAEALLEQAMIGPSPNPLILSYLKYAISSQMVSYSSVLTAISKFDDFSRDLCVQALLDIMDMFCDRLSCHGKAEECIGLCRALLSALHWLLRCTAASAERLQEGLEAGSAVTGEKQLALCLQCLEKTLSSTKNRALLHIAKLEEASSWTAIEHCLLKLGEILANLSNPQLRSQAEHCGTLIRSIPTMLSVHSEQLHKTGFPTIHALILLEGTMNLTGEMQPLVEQLMMVKRMQHIPTPLFVLEIWKACFVGLIESPEGTQELKWTAFTYLKIPQVLVKLKKYFHGDKDFTEDVNCAFEFLLKLTPLLDKADQRCNCDCTNFLLQECNKQGLLSEASFASLVSKRTADRDPQLKSSENANIQPNPGLILRAEPTVTNILKTMDADHSKSPEGLLGVLGHMLSGKSLDLLLAAAAATGKLKSFARKFINLNEFTTHGSGESTKTASVRALLFDISFLMLCHVAQTYGSEVILSESSSGEEVPFFETWMQTCMPEEGKILNPDHPCFRPDSTKVESLVALLNNSSEMKLVQMKWHEACLSISAAILEILNAWENGVLAFESIQKITDNIKGKVCSLAVCAVAWLVAHVRMLGLDEREKSLQMIRQLAGPLYSENTLQFYNERVVIMNSILEHMCADVLQQTATQIKFPSTGVDTMPYWNLLPPKRPIKEVLTDIFAKVLEKGWVDSRSIHILDTLLHMGGVYWFCNNLIKELLKETRKEHTLRAVQLLYSIFCLDMQQVTLVLLGHILPGLLTDSSKWHSLMDPPGTALAKLAVWCALSSYSSHKGQASSRQKKRHREDIEDYISLFPVEDMQPSKLMRLLSSNEDDASILSSPTDRSMNSSLSASQLHTVNMRDPLNRVLANLFLLISSVLGSRTAGPHTQFVQWFMEECVDCLEQDSRGSILQFMPFTTVSELVKVSAMSSPKVVLAITDLSLPLGRQVAAKAIAAL

No constants are given. Whether binding was seen depends on the method and setting. In cells and extracts the contact can be indirect. Here binding means that the protein was enriched with, or labelled near, the bait; the list need not be complete.

In the assay the target is GST-ΔPRIC295^840–1815 (F2) (human) (UniProt Q92616). Briefly: affinity purification with mass spectrometry; GST-ΔPRIC295^840–1815 (F2) as bait, rat liver nuclear extract; bound proteins on a 4–20% Tris-HCl gel, selected bands by MALDI-TOF; only the target purified.
With “PRMT1 in rat liver nuclear extract (from UniProt Q63009 1-353) (enzyme)”, the binding result is “binds”.
As to B1, the binding entry was “binds”.
For the molecule B2, the binding result was “binds”.
Regarding B3, the binding result is “binds”.
